Results deposited as PubChem BioAssay AID1259306 (Sanger Institute, 2017)
Assay: 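Kinases needed for viability and knock-downs that synergise with BYL719, cetuximab or trametinib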 (primary screen). Cells: human SNU-C5 colorectal cancer cells. Reagent: siRNA pool against human genes. Conditions: DMSO vehicle alone, or one anchor drug: BYL719 at 1 µM, cetuximab at 5 µg/ml or trametinib at 10 nM, given 24 h into the assay. Measured: 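Viability versus non-targeting pool averaged across replicates, given as fraction and robust z-score, and synergy scores for BYL719, cetuximab or trametinib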. Scale: robust z-score, knock-down alone and viability, knock-down alone: higher = more viable cells; synergy score with BYL719: higher = stronger synthetic lethality with BYL719; synergy score with cetuximab: higher = stronger synthetic lethality with cetuximab; synergy score with trametinib: higher = stronger synthetic lethality with trametinib. Hit rule: 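Called essential when the robust z-score for knock-down alone is below -3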. Calls: active = essential (knock-down alone); inactive = no change alone.
In all, the deposit lists 794 reagents; below is an unselected part. In the full data, 11 (1.4%) got an active call. 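Calls reflect knock-down alone; synergy scores play no part, so knock-downs synergising with a drug can be called no change.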 No viability above 1 is reported: the scale is capped. Not stated in the record: the amount of reagent, the time to read-out.

gene symbol	PubChem SID	robust z-score, knock-down alone	viability, knock-down alone	synergy score with BYL719	synergy score with cetuximab	synergy score with trametinib	activity call
PIP5KL1 (phosphatidylinositol-4-phosphate 5-kinase like 1)	SID56479217	0.989	1	0.0979	0.101	-0.235	inactive
NF1 (neurofibromin 1)	SID152155944	0.419	0.921	0.201	-0.0786	0.0692	inactive
GSK3B (glycogen synthase kinase 3 beta)	SID56478468	0.418	0.921	-0.0232	-0.058	-0.226	inactive
DAPK1 (death associated protein kinase 1)	SID135620826	-0.388	0.81	-0.0434	-0.0718	-0.0208	inactive
ATR (ATR checkpoint kinase)	SID135620635	-0.157	0.842	0.0225	0.0139	-0.184	inactive
CREBBP (CREB binding lysine acetyltransferase)	SID152156768	-1.63	0.639	-0.0545	-0.0792	-0.193	inactive
PASK (PAS domain containing serine/threonine kinase)	SID56478950	0.914	0.99	-0.00866	-0.0104	0.0324	inactive
STK16 (serine/threonine kinase 16)	SID152154415	-0.17	0.84	-0.00832	-0.16	-0.26	inactive
MARK3 (microtubule affinity regulating kinase 3)	SID56478669	-0.238	0.831	0.0081	-0.089	0.0522	inactive
ELF3 (E74 like ETS transcription factor 3)	SID135623079	-2.02	0.586	-0.0121	-0.00668	-0.0863	inactive
DYRK1A	SID135620889	0.989	1	0.146	0	-0.124	inactive
PIK3R5 (phosphoinositide-3-kinase regulatory subunit 5)	SID152147687	-1.88	0.604	-0.106	-0.189	-0.118	inactive
IKBKB (inhibitor of nuclear factor kappa B kinase subunit beta)	SID152150353	0.989	1	0.0707	0	0.0726	inactive

Sorted by “synergy score with cetuximab” (descending): some entries from above
gene symbol	PubChem SID	robust z-score, knock-down alone	viability, knock-down alone	synergy score with BYL719	synergy score with cetuximab	synergy score with trametinib	activity call
PASK (PAS domain containing serine/threonine kinase)	SID56478950	0.914	0.99	-0.00866	-0.0104	0.0324	inactive
CREBBP (CREB binding lysine acetyltransferase)	SID152156768	-1.63	0.639	-0.0545	-0.0792	-0.193	inactive

Continued.
gene symbol	PubChem SID	robust z-score, knock-down alone	viability, knock-down alone	synergy score with BYL719	synergy score with cetuximab	synergy score with trametinib	activity call
SRGAP3 (SLIT-ROBO Rho GTPase activating protein 3)	SID152151814	0.0738	0.874	-0.0742	-0.0944	-0.234	inactive
SRPK2 (SRSF protein kinase 2)	SID56478890	0.447	0.925	0.0983	0.18	-0.0345	inactive
AURKB (aurora kinase B)	SID152151121	-0.546	0.789	-0.0292	-0.173	-0.00379	inactive
EPHB1 (EPH receptor B1)	SID152152600	-0.224	0.833	-0.0972	-0.0421	-0.0517	inactive
PFKL (phosphofructokinase, liver type)	SID56479167	-0.618	0.779	-0.0988	0.0798	-0.115	inactive
NME7 (NME/NM23 family member 7)	SID56479121	0.989	1	0.129	0	0.0772	inactive
PFKFB3 (6-phosphofructo-2-kinase/fructose-2,6-biphosphatase 3)	SID135621247	0.532	0.937	-0.0305	0.11	0.308	inactive
PHKG2 (phosphorylase kinase catalytic subunit gamma 2)	SID135620902	-0.00287	0.863	0.104	-0.0297	-0.167	inactive
BRD3 (bromodomain containing 3)	SID135620912	0.989	1	0	0	-0.0156	inactive
IGF2R (insulin like growth factor 2 receptor)	SID152150296	0.821	0.977	0.096	-0.0231	0.00994	inactive
GSK3A (glycogen synthase kinase 3 alpha)	SID56478467	-0.398	0.809	0.041	0.0298	0.0622	inactive
ROR1 (ROR family WNT receptor 1)	SID135620631	0.761	0.969	0.106	-0.0314	0.0407	inactive
TWF1 (twinfilin actin binding protein 1)	SID56478546	0.989	1	0.179	0	-0.173	inactive
PRKACA (protein kinase cAMP-activated catalytic subunit alpha)	SID135620859	0.989	1	0.0505	0	0.053	inactive
BMPR1A (bone morphogenetic protein receptor type 1A)	SID135620910	0.989	1	0.209	0	-0.0414	inactive
AMHR2 (anti-Mullerian hormone receptor type 2)	SID56478996	0.865	0.983	0.0252	-0.0172	0.0915	inactive
CALM1 (calmodulin 1)	SID152156420	0.802	0.974	0.0532	-0.0257	-0.0759	inactive
MAP2K3 (mitogen-activated protein kinase kinase 3)	SID152148115	-1.64	0.638	0.124	0.112	-0.16	inactive
SYNCRIP (synaptotagmin binding cytoplasmic RNA interacting protein)	SID134320219	-1.88	0.605	0.0167	-0.183	-0.111	inactive
PNCK (pregnancy up-regulated nonubiquitous CaM kinase)	SID152151558	0.74	0.966	0.258	0.0206	0.121	inactive
CHD9 (chromodomain helicase DNA binding protein 9)	SID152154196	-0.946	0.733	-0.0546	-0.145	-0.0924	inactive
